From patent US4661516A, “Diaminocyclohexane platinum complexes” (Research Corporation, priority 1984, dated 1987)

Test system: L1210 leukemia cells (L1210/PDD)
Test: In vitro cytotoxicity / cross-resistance, L1210/PDD (L1210/DDP) cells resistant to cisdiamminedichloroplatinum(II)
Type: cell-based
Conditions: L1210/DDP vs L1210/0
Protocol: Four ml of cell suspension were added to culture tubes and the appropriate concentration (0.01, 0.1, 1 or 10 μg/ml final drug concentration) was added. After 96 hours the cell concentration of control and experimental cultures were calculated with the aid of a Coulter Counter® Model ZBf and the percent inhibition calculated.

cis-bis-D-monosaccharato(DACH)Pt(II).3H2 O [Compound 8]
Resistance Factor: 0.3

mono-N--benzyliminodiacetato [Identifier No. 15a]
Resistance Factor: 2.4

N[C@@H]1CCCC[C@H]1N.O=C([O-])CN(CCO)CC(=O)[O-].[Pt+2] [Identifier No. 12a, mono-N--hydroxyethyliminodiacetato]
Resistance Factor: 1.3

NC1CCCCC1N.O.O.O=C([O-])CN(CC(=O)[O-])c1ccccc1.[Pt+2] [Compound 37, N--Phenyliminodiacetato(DACH)Pt(II).2H2 O]
Resistance Factor: 1.1

furanedicarboxylato(DACH)Pt(II) [Compound 19]
Resistance Factor: 0.9

CN(CC(=O)[O-])CC(=O)[O-].NC1CCCCC1N.O.[Pt+2] [Compound 28, N--Methyliminodiacetato(DACH)Pt(II).1H2 O]
Resistance Factor: 0.8

NC1CCCCC1N.O.O.O=C([O-])CN(CCO)CC(=O)[O-].[Pt+2] [Compound 39, N--(2-Hydroxyethyl)-iminodiacetato(DACH)Pt(II).2H2 O]
Resistance Factor: 1.3

O.O.O=C([O-])C[N-]CC(=O)O.[NH-]C1CCCCC1[NH-].[Pt] [Compound 11, iminodiacetato(DACH)Pt(II).2H2 O]
Resistance Factor: 0.4

NC1CCCCC1N.O=C([O-])CN(CC(=O)[O-])Cc1ccccc1.[Pt+2] [Compound 38, N--Benzyliminodiacetato(DACH)Pt(II)]
Resistance Factor: 0.8

NC(=O)CN(CC(=O)[O-])CC(=O)[O-].NC1CCCCC1N.[Pt+2] [Compound 42, N--(2-Acetamido)-iminodiacetato(DACH)Pt(II).1/2H2 O]
Resistance Factor: 0.6

NC1CCCCC1N.O=C([O-])C1CCCN1.O=C([O-])C1CCCN1.[Pt+2] [Compound 16, cis-bis-L-prolinato(DACH)Pt(II)]
Resistance Factor: 0.6

NC1CCCCC1N.O=C1O[C@H]([C@@H](O)C(=O)[O-])[C@H](O)[C@H]1O.O=C1O[C@H]([C@@H](O)C(=O)[O-])[C@H](O)[C@H]1O.[Pt+2] [Compound 9, cis-bis-D-saccharato-1,4-lactone(DACH)Pt(II)]
Resistance Factor: 0.2

NC1CCCCC1N.NCCOS(=O)(=O)[O-].NCCOS(=O)(=O)[O-].[Pt+2] (stereo not drawn) [Compound 14, cis-bis-2-aminoethylsulfato(DACH)Pt(II)]
Resistance Factor: 0.9

NC1CCCCC1N.O.O=C1OC(C(O)CO)C([O-])=C1O.O=C1OC(C(O)CO)C([O-])=C1O.[Pt+2] (stereo not drawn) [Compound 3, cis-bis-ascorbato(DACH)Pt(II).1H2 O]
Resistance Factor: 1.0

NC1CCCCC1N.O=C1OC(C(O)CO)C([O-])=C1O.O=C1OC(C(O)CO)C([O-])=C1O.[Pt+2] (mixture of isomers) [Compound 7, cis-bis-isoascorbato(DACH)Pt(II).3H2 O]
Resistance Factor: 0.9

CN(CC(=O)[O-])CC(=O)[O-].N[C@@H]1CCCC[C@H]1N.[Pt+2] [Identifier No. 11a, mono-N--methyliminodiacetato]
Resistance Factor: 2.4

mono-N--phenyliminodiacetato [Identifier No. 14a]
Resistance Factor: 0.8

N.N.[Cl][Pt][Cl] [DDP, diamminedichloroplatinum II, reference compound]
Resistance Factor: 55

isocitratomonoethylester(DACH)Pt(II).1.5H2 O [Compound 21]
Resistance Factor: 0.9
